Reference: patent publication US10214762B2, “Cell differentiation devices and methods” (GEORGIA TECH RESEARCH CORPORATION, priority 2014, dated 2019)
Some of these results come from one statement about several compounds together.

System: E. coli (ATCC 43888)

For `N[C@@H](CC(=O)O)C(=O)O` [aspartic acid, L-aspartic acid], the “viable cells that made the shift and exited in the buffer stream” value was “up to 84%”.
